Laboratory results as given in the supplement of paper PMC10849652.
The other results are listed elsewhere or left out.

Protein sequences, listed by entry. Tags and fused reporters are not part of them. Lines headed by an entry give the natural chain unless they say otherwise; changes in a name come on top.
UniProt Q9Y6I8: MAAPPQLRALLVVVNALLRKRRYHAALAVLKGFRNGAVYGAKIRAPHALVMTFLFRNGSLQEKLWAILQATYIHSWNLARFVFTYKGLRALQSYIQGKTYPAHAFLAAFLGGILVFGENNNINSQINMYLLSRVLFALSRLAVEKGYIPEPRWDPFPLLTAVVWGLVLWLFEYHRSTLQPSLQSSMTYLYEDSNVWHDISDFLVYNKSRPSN
UniProt Q96D70: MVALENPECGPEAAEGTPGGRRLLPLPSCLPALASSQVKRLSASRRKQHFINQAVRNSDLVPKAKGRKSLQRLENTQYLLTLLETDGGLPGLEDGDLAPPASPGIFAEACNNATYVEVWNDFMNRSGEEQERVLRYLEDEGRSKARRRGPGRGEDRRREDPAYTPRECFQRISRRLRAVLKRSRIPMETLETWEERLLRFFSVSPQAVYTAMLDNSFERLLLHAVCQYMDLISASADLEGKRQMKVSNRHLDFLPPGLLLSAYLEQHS
UniProt Q9Y3T6: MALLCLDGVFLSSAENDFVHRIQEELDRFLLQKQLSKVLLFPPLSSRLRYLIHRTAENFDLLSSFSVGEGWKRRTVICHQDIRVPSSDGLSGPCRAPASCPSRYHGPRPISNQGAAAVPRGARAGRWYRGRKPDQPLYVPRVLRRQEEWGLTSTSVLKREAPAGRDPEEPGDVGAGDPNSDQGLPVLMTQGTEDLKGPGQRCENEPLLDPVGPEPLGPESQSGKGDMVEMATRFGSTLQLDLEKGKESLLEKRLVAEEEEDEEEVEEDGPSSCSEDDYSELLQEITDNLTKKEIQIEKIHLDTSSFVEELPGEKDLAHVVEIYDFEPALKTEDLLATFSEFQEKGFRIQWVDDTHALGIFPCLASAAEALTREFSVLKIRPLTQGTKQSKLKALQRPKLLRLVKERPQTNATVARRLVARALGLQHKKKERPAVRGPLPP
UniProt P51148: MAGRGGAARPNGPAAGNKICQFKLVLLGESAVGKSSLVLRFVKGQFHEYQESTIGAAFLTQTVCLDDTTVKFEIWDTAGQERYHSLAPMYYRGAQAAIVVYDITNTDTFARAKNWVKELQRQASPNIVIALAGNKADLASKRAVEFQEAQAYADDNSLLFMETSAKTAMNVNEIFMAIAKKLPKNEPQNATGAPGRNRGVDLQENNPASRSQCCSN
UniProt P11216: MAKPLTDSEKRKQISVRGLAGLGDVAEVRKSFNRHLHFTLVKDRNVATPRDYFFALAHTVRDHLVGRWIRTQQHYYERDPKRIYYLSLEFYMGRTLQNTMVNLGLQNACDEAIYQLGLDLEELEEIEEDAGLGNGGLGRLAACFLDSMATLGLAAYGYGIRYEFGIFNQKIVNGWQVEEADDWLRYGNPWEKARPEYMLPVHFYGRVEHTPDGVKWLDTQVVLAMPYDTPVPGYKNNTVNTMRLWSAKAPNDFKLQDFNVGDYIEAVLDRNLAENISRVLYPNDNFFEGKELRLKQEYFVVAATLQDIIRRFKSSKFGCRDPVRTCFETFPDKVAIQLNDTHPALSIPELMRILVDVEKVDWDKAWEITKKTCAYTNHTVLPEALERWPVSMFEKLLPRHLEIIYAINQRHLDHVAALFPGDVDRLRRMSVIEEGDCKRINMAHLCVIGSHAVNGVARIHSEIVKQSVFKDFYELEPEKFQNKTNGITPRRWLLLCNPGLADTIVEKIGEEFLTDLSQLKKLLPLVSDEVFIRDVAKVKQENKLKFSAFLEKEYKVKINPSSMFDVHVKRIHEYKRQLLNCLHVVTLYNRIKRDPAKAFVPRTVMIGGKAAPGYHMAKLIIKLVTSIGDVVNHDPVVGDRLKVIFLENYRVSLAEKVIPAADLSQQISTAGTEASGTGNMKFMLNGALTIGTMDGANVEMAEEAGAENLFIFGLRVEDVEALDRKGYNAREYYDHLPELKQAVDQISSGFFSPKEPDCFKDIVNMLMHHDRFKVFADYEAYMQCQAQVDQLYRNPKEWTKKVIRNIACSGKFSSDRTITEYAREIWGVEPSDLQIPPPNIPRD
UniProt Q9UL25: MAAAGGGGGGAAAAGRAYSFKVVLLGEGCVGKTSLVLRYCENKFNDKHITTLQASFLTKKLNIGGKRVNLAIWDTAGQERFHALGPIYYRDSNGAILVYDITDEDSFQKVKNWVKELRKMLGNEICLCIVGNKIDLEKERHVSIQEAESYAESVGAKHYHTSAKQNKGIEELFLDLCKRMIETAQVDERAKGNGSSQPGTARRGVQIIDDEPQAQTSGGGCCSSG
UniProt Q9H0H5: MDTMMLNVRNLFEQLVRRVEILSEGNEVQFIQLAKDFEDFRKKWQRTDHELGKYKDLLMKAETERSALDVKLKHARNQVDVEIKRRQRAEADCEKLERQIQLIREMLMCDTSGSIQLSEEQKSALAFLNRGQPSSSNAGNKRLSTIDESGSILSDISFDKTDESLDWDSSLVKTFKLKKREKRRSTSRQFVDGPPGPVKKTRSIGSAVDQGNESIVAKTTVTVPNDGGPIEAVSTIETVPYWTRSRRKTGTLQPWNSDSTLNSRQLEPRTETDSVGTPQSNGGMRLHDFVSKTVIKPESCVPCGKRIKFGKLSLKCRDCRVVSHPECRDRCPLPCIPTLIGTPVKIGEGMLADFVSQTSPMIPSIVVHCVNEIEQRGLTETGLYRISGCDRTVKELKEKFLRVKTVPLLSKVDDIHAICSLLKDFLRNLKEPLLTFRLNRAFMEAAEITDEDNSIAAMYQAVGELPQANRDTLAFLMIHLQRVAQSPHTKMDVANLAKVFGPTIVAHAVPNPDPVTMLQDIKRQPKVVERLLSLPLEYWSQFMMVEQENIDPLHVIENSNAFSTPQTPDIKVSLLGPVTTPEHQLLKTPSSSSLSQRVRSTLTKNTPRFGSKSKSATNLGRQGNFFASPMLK
UniProt P43487, whole entry, looked up: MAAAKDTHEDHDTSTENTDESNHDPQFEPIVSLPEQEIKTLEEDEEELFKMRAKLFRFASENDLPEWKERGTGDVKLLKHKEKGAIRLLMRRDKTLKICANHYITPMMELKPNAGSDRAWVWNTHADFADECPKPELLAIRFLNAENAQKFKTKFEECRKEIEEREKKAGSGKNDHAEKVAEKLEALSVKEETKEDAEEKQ

What follows are targets tested with c1cn2cc(-c3ccc4cn[nH]c4c3)nc(Nc3ccc(N4CCOCC4)cc3)c2n1 [entospletinib] (assay: log2 fold change, soluble protein after heating vs DMSO (PISA); higher = thermal stabilisation; K562 lysate, 10 uM; active = over 0.2 and 3.5 SD of the protein, either way, in both replicates (recomputed)).
In short: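 Soluble protein was defined as the supernatant remaining after 21,000xg for 90 min, following pooling of heated aliquots and adjustment to 0.5% NP-40 at 4°C. Before that, crude K562 extract at 1 mg/mL protein in PBS pH 7.4 with 1 mM MgCl2 was treated with 10 μM compound for 30 min and heated for 3 min across 48°C-58°C. Quantification used TMTpro 16plex LC-MS/MS with channel sums equalised, and values are log-two fold changes in thermal stability relative to solvent controls from duplicates.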

log2 fold change, inactive:
R3HCC1L, A0A384DVK4 0.013
PXMP4 (UniProt Q9Y6I8) -0.004
RABGAP1L isoform 3 (UniProt Q5R372) 0.013
R3HDM4 (UniProt Q96D70) -0.062
R3HCC1 (UniProt Q9Y3T6) 0.067
RAB5C isoform 2 (UniProt P51148) -0.039
PYGB (UniProt P11216) -0.049
RAB21 (UniProt Q9UL25) 0.02
RACGAP1 (UniProt Q9H0H5) -0.015
RANBP1 (UniProt P43487) -0.007
